Earlier results on five sequences are cited in paper PMC12990809.

Holding throughout (assay): pull-down
The target in one series is T1, SRSF2 (Homo sapiens) (UniProt Q01130).
T1 sequence: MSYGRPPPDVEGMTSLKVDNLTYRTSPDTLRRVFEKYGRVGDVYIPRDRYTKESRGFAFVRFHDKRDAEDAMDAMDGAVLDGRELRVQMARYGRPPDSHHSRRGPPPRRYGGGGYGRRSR
The settings on record: 20 nM protein, 1.5 uM RNA pool; 20 mM HEPES pH 7.8, 70 mM KCl, 10 mM NaCl, 10% glycerol, 2 mM DTT, 0.1 ug/uL BSA; 30 min, 4 C; purified recombinant protein; residues 1-120; only the motif is given; cited from earlier work.

For series [1], the target named is T2, CG33714 (Drosophila melanogaster) (UniProt Q0KHQ1).
T2 sequence: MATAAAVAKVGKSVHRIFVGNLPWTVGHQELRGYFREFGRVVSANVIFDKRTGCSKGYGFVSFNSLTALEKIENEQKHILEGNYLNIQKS
As to conditions: 20 nM protein, 1.5 uM RNA pool; 20 mM HEPES pH 7.8, 70 mM KCl, 10 mM NaCl, 10% glycerol, 2 mM DTT, 0.1 ug/uL BSA; 30 min, 4 C; purified recombinant protein; protein details: N-terminal GST (kept); only the motif is given; cited from earlier work.

The target in series [2] is T3, Rnp4F (Drosophila melanogaster) (UniProt Q9W4D2).
T3 sequence: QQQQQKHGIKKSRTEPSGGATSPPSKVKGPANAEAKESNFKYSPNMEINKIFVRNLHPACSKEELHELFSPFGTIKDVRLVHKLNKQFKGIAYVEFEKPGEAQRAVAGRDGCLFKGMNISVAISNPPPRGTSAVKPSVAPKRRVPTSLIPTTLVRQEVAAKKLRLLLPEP
The settings on record: 20 nM protein, 1.5 uM RNA pool; 20 mM HEPES pH 7.8, 70 mM KCl, 10 mM NaCl, 10% glycerol, 2 mM DTT, 0.1 ug/uL BSA; 30 min, 4 C; purified recombinant protein; residues 676-845; protein details: N-terminal GST (kept); only the motif is given; cited from earlier work.

A further series addresses T4, TUT1 (Homo sapiens) (UniProt F5H0R1).
T4 sequence: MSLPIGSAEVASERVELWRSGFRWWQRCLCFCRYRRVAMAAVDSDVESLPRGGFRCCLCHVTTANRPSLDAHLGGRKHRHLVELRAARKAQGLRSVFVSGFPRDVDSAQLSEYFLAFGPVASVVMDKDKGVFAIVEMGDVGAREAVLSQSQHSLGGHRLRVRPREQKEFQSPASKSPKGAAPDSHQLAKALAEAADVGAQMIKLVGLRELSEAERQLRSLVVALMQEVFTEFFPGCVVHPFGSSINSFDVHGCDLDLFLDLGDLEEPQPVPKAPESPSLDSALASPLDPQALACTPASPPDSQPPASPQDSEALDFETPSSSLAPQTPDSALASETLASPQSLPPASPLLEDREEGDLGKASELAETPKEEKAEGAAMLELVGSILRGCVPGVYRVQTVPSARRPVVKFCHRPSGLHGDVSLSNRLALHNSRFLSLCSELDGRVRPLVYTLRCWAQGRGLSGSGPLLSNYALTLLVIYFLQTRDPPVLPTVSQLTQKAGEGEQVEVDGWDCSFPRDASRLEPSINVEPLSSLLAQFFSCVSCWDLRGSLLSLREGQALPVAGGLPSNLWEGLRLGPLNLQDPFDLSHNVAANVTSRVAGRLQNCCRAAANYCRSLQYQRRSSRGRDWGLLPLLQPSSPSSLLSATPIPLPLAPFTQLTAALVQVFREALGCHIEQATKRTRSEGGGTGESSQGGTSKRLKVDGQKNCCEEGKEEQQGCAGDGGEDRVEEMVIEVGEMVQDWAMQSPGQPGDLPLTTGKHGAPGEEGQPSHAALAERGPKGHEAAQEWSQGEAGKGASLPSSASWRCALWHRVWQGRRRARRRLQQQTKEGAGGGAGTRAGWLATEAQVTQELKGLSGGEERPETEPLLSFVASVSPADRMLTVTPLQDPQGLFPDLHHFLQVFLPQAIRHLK
As to conditions: 20 nM protein, 1.5 uM RNA pool; 20 mM HEPES pH 7.8, 70 mM KCl, 10 mM NaCl, 10% glycerol, 2 mM DTT, 0.1 ug/uL BSA; 30 min, 4 C; purified recombinant protein; only the motif is given; cited from earlier work.

The target in the next series is RBM8A (Homo sapiens) (UniProt Q9Y5S9). As to conditions: 20 nM protein, 1.5 uM RNA pool; 20 mM HEPES pH 7.8, 70 mM KCl, 10 mM NaCl, 10% glycerol, 2 mM DTT, 0.1 ug/uL BSA; 30 min, 4 C; purified recombinant protein; residues 22-174; protein details: N-terminal GST (kept); only the motif is given; cited from earlier work.

The direction of at least one scale is not stated here. For some assays here: Tags and fusion partners may be left off the protein sequences shown.

As for AGGAGAG [RNAcompete motif RNCMPT00072], the binding signal (z-score (mean of top ten 7-mers)) with SRSF2 (Homo sapiens) is 5.69.

AGGGCGU [RNAcompete motif RNCMPT00009]: the binding signal (z-score (mean of top ten 7-mers)) in series [1] is 5.74.

With CAGAC [RNAcompete motif RNCMPT00060], the binding signal (z-score (mean of top ten 7-mers)) in series [2] is 5.2. With CGAUACU [RNAcompete motif RNCMPT00075], in the series with TUT1 (Homo sapiens), the binding signal (z-score (mean of top ten 7-mers)) was 4.2. As to UGCGCGC [RNAcompete motif RNCMPT00056], in the series with RBM8A (Homo sapiens), the binding signal (z-score (mean of top ten 7-mers)) is 4.37.
